For 42 sequences, binding signal results are on record in publication PMC7819943, “Rice protein-binding microarrays: a tool to detect cis-acting elements near promoter regions in rice”.

The other results are listed elsewhere or left out.

This assay addresses T1, OsSMF1 (Oryza sativa, UniProt Q6ZLB0 1-436).
T1 sequence: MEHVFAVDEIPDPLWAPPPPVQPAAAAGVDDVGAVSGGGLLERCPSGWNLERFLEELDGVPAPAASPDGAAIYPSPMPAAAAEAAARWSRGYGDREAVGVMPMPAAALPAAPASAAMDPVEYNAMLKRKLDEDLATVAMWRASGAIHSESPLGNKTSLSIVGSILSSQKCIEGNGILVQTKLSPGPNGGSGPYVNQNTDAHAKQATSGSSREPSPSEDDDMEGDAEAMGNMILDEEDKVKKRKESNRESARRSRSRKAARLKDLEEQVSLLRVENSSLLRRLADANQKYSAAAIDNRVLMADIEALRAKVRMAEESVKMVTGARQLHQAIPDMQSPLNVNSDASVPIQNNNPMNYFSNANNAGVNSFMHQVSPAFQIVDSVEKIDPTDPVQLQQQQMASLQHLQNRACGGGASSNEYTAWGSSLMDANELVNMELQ
Nature of the assay: protein-binding microarray (RPBM); PBS, 2% BSA, 51.3 ng/ul salmon testes DNA, 50 uM zinc acetate, 200 nM TF, 25 C, 1 h; high values mean tight binding. The note with it: protein: recombinant; tags: N-terminal polyhistidine and DsRed monomer fusion (pET32a); chain copies: 2; label: CyDye5-dUTP incorporated in the synthesized complementary strand; 3' TTTTT single-stranded linker to array surface; dsDNA, one strand shown. The gist of the method: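 Polyhistidine-tagged DsRed fusions of transcription factors, joined at the N-terminus, were expressed in E. coli BL21-CodonPlus and isolated on Ni–NTA. They were incubated at 200 nM for 1 h at 25 °C on a custom Agilent array, double-stranded and BSA-blocked, in PBS with 2% BSA, salmon testes DNA and 50 µM zinc acetate. The binding signal is per-feature fluorescence intensity (arbitrary units) read on an Axon 4000B scanner after washing.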
“CCTCTTTCTCTCGTACGATCGTGCCGCCTGACGCCTGCTGCGGAGTCACCTAGTGCAG”: the binding signal was 3800 fluorescence intensity (a.u.).

As for “CTGCTTTCTGGTTCATCTATGATAATATGACTGTGCTGCTCGGAGTCACCTAGTGCAG”, the binding signal was 4680 fluorescence intensity (a.u.).

In the case of “TTGGAGAGGCACATGCTGATGAGGCGGAGGAGGGGCGGCGCGGAGTCACCTAGTGCAG”, the binding signal was 5340 fluorescence intensity (a.u.).

In the case of “ATCAGAAGTACGGCCACGTCAGAACAAGCAGAGAAAGGCCCGGAGTCACCTAGTGCAG”, the binding signal was 10000 fluorescence intensity (a.u.).

On to “CAACCTCCGCCGCCGCCGCCGCCGTCCAGGAACTGACCGGCGGAGTCACCTAGTGCAG”, for which the binding signal was 3960 fluorescence intensity (a.u.).

For “AAATGCATCAGTAAACCAGCATATTACACGGATCAAATCACGGAGTCACCTAGTGCAG”, the binding signal was 4350 fluorescence intensity (a.u.).

Take “GCCCGACCACATCCCTCTCCCTCCTTACGCCGGCACGAATCGGAGTCACCTAGTGCAG”: the binding signal is 3430 fluorescence intensity (a.u.).

“TCTTGATTATCGGTGTGGCAGTGGCAGTTCAGTGGCACTGCGGAGTCACCTAGTGCAG”: the binding signal was 3460 fluorescence intensity (a.u.).

Regarding “CCGTGGTCTTGTCTATGTGGCATGCTACGTGGACGATGACCGGAGTCACCTAGTGCAG”, the binding signal is 7300 fluorescence intensity (a.u.).

On to “GCCGGTGGTCCCACCGTCCACGTCCCACGCCGGAGCTCGTCGGAGTCACCTAGTGCAG”, for which the binding signal is 7920 fluorescence intensity (a.u.).

On to “CTACCTTGGCCACAACGCCCACGTACACCTTCCATTGTTGCGGAGTCACCTAGTGCAG”, for which the binding signal was 6250 fluorescence intensity (a.u.).

For “CCTTCGGCCTATGATTCTATGGAAGCCCGTCATGACCAAGCGGAGTCACCTAGTGCAG”, the binding signal is 3140 fluorescence intensity (a.u.).

For “TTGGTTGACACGTGGAGGCGGACATATGGACCCACGTGGACGGAGTCACCTAGTGCAG”, the binding signal is 24300 fluorescence intensity (a.u.).

As for “GGCTCCAGCCCAACAAGTTCTCGGCCCAACTATCCACGTACGGAGTCACCTAGTGCAG”, the binding signal was 3430 fluorescence intensity (a.u.).

As for “GCGGGTGGGTGGCAGGGTGGGTATACGTACACGTCTCCGACGGAGTCACCTAGTGCAG”, the binding signal was 4750 fluorescence intensity (a.u.).

In the case of “CCTTCCAGATTGTCCACGCTACCAGTGTCGCCTCCTACTGCGGAGTCACCTAGTGCAG”, the binding signal was 3750 fluorescence intensity (a.u.).

“CCACTGTAGTGGTAAATTGTTGTTTTCTCTGAATTGGTGTCGGAGTCACCTAGTGCAG”: the binding signal was 6720 fluorescence intensity (a.u.).

Turning to “GGCCCAGCAGGTAGCATACACGAGCTGCGAGATGAGTCGGCGGAGTCACCTAGTGCAG”, the binding signal is 3480 fluorescence intensity (a.u.).

Turning to “ACCAGGGAGCATGAGATCGTGGCGAGTAAATTTGACGGGGCGGAGTCACCTAGTGCAG”, the binding signal was 4310 fluorescence intensity (a.u.).

For the sequence “AAACTATTAAGCCAAGGAATAAGGATGGAAGCGTCATGCTCGGAGTCACCTAGTGCAG”, the binding signal is 3520 fluorescence intensity (a.u.).

Take “ACTAGTACCATCATCGCACCCCACACCAACTGACACGTGGCGGAGTCACCTAGTGCAG”: the binding signal is 24800 fluorescence intensity (a.u.).

For the sequence “TCAATGATATTCCAACTCACTGTCACTGTCATATGATCTGCGGAGTCACCTAGTGCAG”, the binding signal is 5910 fluorescence intensity (a.u.).

With “GAAGAGGAAGCCGGACACTGAATCGCGGGAGAGGTGTGTGCGGAGTCACCTAGTGCAG”, the binding signal was 3140 fluorescence intensity (a.u.).

On to “TGCTGCCGGCGGTGGCGGGGCGGCCGAGGTGGCGGCTGCTCGGAGTCACCTAGTGCAG”, for which the binding signal was 3660 fluorescence intensity (a.u.).

“GAAGAGAAGTCGTCAGGTGATATTTCGTGGGCCAAATGGGCGGAGTCACCTAGTGCAG”: the binding signal was 34000 fluorescence intensity (a.u.).

As for “AAATAAACAAGACAAGCATTTCCCTTACGGTTAAGAGTATCGGAGTCACCTAGTGCAG”, the binding signal is 4290 fluorescence intensity (a.u.).

Consider “CCTTCCTCTTGTAACAGAAGGGTACTTACGTGGCAGCCCACGGAGTCACCTAGTGCAG”, for which the binding signal was 17100 fluorescence intensity (a.u.).

With “TTTGATCCAAGGGTCGTCGTCGTCGTCGTTAGTCTAATGACGGAGTCACCTAGTGCAG”, the binding signal was 3360 fluorescence intensity (a.u.).

Consider “TCCCATGCCGCCTCACCGGTGACCACCTACCCGCCCTTCCCGGAGTCACCTAGTGCAG”, for which the binding signal is 3930 fluorescence intensity (a.u.).

Take “CGCTTTGTTCATGGATGCCACGTGTCAACGCCTGATTCGACGGAGTCACCTAGTGCAG”: the binding signal is 23500 fluorescence intensity (a.u.).

“ACTCATATCACATGCCTGAAATTCTTGGAAGGCTATCTGACGGAGTCACCTAGTGCAG”: the binding signal is 23100 fluorescence intensity (a.u.).

As for “AGCACCACACTTGTACCTTACATGGCTCATGTGTAATTGACGGAGTCACCTAGTGCAG”, the binding signal was 4270 fluorescence intensity (a.u.).

On to “GCAAAATACATAATGAAGTGTGATGACGATACATTTGTTACGGAGTCACCTAGTGCAG”, for which the binding signal is 3160 fluorescence intensity (a.u.).

In the case of “GCACTGGAATGCCGCCGCCGTGCCCGCCGCGTGGTCTTGCCGGAGTCACCTAGTGCAG”, the binding signal was 3190 fluorescence intensity (a.u.).

Take “ACATGCATGCTTCACACTGCCACCTAGATTAATTACTTCCCGGAGTCACCTAGTGCAG”: the binding signal was 5030 fluorescence intensity (a.u.).

As for “CCTATTCCTTGTCACTATGACACCGTCATATATCTATGCACGGAGTCACCTAGTGCAG”, the binding signal was 3420 fluorescence intensity (a.u.).

With “GCGGCAAGGCGACGCTCCCAGGCGGTGGCACGTCAGTTCCCGGAGTCACCTAGTGCAG”, the binding signal is 3940 fluorescence intensity (a.u.).

For “GGTAACGAAGGTTGAGGTCGACCTCGAGCATGTCCCAAGCCGGAGTCACCTAGTGCAG”, the binding signal is 28700 fluorescence intensity (a.u.).

Turning to “CACTCCGTCACAGTTCACAGCCTCAGAGGCCCAGATCACACGGAGTCACCTAGTGCAG”, the binding signal is 33900 fluorescence intensity (a.u.).

Consider “ACAGGAATATCTCTTCGAGGGATTAAAATTCACTCCCACTCGGAGTCACCTAGTGCAG”, for which the binding signal is 50800 fluorescence intensity (a.u.).

As to “TTGATGGGATATGTCGGGCTGCACGTCGCCTGACACACGCCGGAGTCACCTAGTGCAG”, the binding signal was 3310 fluorescence intensity (a.u.).

As for “ACCATGATCCTGTCATGTTGGCCTTTCCACGTCCTTACAACGGAGTCACCTAGTGCAG”, the binding signal was 5820 fluorescence intensity (a.u.).
